The text below walks through data of the supplement of paper PMC10849652.

Chains of the proteins cited; added tags and fusions are not shown. Lines headed by an entry give the natural chain unless they say otherwise; changes in a name come on top.
UniProt O75155: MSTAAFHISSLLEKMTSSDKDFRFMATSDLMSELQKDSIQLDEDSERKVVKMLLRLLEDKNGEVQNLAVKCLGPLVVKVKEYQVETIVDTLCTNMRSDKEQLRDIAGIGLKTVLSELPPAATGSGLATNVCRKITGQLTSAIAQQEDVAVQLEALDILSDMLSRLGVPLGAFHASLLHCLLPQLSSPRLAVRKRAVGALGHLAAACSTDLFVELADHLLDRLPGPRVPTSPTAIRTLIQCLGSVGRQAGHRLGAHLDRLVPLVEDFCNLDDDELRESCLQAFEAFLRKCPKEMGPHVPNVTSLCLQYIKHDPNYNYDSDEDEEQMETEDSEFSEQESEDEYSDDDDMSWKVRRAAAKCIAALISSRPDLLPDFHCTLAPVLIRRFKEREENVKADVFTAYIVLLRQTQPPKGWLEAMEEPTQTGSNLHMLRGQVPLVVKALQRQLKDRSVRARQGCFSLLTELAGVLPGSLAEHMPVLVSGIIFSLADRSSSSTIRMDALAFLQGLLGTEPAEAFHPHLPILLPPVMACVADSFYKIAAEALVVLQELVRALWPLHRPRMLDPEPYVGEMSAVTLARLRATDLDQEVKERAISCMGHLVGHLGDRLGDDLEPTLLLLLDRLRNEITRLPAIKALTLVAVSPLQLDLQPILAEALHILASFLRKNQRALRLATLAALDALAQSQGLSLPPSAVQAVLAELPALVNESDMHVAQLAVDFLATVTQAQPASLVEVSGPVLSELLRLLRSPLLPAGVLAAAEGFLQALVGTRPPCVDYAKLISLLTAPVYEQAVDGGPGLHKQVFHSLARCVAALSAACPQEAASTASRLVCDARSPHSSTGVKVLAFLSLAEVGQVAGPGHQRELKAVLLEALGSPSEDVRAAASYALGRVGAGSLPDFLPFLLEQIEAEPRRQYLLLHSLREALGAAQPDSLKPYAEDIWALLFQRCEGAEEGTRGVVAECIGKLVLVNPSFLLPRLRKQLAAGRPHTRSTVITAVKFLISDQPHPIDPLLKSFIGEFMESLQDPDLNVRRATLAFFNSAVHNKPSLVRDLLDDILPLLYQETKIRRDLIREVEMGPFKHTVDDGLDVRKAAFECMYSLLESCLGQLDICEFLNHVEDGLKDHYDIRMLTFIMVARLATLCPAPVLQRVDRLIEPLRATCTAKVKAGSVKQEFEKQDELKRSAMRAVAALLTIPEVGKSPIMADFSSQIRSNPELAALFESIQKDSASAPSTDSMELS
UniProt Q86VG3: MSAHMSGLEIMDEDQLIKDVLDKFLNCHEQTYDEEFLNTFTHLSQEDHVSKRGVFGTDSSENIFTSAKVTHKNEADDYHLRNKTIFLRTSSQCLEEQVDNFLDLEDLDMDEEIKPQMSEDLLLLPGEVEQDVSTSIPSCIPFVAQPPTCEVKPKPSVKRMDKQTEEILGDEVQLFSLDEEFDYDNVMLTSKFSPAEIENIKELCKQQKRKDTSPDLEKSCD
UniProt Q8WUR7: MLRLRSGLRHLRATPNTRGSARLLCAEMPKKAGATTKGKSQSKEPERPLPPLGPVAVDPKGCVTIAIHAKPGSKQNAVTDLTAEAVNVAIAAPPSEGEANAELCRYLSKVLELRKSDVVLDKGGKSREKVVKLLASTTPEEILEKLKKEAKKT
UniProt Q9H425: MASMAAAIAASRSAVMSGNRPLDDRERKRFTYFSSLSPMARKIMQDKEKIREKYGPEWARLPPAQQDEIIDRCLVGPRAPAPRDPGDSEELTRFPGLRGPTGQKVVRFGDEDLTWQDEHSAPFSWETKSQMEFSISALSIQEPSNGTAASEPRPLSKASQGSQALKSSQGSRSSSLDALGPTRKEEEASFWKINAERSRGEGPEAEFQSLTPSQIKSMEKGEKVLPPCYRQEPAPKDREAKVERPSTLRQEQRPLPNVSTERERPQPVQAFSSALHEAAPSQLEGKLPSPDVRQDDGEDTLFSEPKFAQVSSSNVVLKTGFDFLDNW
UniProt Q5SQH8: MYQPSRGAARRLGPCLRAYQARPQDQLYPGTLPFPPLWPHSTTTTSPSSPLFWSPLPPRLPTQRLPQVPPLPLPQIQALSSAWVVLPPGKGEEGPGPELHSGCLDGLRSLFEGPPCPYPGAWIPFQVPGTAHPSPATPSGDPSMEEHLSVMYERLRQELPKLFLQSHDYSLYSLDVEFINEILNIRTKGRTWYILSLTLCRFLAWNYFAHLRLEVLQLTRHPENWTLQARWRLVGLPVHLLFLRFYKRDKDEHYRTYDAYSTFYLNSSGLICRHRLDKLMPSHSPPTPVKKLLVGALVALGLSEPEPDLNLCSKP
UniProt Q49AR2: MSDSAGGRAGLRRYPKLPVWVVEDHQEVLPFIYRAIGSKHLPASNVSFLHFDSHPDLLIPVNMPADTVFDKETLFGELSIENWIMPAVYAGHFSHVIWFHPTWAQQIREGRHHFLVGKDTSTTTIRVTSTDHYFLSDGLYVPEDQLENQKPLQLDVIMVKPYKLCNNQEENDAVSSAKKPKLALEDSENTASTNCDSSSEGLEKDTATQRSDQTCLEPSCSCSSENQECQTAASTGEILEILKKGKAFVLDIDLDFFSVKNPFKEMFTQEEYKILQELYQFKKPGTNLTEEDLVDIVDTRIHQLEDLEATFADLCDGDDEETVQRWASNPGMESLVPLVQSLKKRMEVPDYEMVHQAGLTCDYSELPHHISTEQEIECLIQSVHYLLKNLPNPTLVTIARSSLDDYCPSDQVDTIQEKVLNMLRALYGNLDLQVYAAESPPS
UniProt P35613: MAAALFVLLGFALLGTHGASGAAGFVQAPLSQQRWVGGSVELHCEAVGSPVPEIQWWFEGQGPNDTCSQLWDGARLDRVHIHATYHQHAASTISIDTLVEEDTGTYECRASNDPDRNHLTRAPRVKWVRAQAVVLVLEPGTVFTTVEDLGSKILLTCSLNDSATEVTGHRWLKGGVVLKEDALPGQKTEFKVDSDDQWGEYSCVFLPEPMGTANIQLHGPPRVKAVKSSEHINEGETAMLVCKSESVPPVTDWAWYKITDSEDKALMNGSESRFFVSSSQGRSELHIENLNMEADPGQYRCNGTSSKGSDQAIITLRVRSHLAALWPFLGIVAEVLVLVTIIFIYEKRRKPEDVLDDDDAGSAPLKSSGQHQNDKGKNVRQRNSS
UniProt Q9Y376: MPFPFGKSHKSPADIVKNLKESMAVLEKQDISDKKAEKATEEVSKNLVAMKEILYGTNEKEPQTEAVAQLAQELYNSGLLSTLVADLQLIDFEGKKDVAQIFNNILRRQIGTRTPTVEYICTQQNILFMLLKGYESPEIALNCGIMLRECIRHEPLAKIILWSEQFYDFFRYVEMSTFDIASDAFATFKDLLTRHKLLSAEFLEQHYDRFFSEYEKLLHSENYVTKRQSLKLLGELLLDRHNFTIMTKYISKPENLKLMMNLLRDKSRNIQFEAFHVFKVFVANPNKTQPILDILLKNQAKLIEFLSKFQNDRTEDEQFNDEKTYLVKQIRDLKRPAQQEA
UniProt Q9BX69: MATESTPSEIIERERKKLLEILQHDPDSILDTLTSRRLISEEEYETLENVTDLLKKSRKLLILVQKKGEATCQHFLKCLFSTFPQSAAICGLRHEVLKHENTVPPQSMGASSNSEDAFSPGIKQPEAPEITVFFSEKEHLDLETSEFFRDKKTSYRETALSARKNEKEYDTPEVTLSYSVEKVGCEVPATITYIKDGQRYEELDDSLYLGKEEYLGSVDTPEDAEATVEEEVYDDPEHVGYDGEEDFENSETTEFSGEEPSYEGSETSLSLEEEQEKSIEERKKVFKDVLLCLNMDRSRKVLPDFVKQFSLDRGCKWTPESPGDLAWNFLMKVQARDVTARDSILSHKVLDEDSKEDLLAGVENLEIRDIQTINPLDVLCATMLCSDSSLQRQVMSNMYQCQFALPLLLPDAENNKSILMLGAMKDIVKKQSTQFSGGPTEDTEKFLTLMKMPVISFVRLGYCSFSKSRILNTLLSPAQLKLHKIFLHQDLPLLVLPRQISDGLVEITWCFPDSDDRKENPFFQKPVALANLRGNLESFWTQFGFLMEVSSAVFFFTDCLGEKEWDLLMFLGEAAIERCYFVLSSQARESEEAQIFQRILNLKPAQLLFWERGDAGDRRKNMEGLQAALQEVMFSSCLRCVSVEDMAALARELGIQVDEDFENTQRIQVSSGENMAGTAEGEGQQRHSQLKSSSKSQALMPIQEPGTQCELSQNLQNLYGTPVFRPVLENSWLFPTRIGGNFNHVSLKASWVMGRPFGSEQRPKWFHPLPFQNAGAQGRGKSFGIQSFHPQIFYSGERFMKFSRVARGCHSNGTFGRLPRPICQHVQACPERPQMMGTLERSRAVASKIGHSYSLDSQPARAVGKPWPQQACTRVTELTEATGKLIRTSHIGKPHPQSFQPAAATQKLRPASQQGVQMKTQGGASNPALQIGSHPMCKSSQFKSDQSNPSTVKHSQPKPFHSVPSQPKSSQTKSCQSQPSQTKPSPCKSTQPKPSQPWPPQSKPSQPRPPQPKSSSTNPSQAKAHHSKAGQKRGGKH
UniProt Q8TCD1: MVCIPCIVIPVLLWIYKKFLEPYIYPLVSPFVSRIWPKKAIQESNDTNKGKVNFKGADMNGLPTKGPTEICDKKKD
UniProt Q9BVC5: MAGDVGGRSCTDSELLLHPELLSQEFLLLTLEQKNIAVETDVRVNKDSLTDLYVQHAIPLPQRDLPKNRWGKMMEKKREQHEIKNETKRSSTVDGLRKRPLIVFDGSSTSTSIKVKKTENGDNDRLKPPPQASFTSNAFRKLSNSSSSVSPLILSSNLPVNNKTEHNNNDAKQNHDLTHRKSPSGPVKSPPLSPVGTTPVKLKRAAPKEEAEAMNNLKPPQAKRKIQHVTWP
UniProt Q9Y6W3: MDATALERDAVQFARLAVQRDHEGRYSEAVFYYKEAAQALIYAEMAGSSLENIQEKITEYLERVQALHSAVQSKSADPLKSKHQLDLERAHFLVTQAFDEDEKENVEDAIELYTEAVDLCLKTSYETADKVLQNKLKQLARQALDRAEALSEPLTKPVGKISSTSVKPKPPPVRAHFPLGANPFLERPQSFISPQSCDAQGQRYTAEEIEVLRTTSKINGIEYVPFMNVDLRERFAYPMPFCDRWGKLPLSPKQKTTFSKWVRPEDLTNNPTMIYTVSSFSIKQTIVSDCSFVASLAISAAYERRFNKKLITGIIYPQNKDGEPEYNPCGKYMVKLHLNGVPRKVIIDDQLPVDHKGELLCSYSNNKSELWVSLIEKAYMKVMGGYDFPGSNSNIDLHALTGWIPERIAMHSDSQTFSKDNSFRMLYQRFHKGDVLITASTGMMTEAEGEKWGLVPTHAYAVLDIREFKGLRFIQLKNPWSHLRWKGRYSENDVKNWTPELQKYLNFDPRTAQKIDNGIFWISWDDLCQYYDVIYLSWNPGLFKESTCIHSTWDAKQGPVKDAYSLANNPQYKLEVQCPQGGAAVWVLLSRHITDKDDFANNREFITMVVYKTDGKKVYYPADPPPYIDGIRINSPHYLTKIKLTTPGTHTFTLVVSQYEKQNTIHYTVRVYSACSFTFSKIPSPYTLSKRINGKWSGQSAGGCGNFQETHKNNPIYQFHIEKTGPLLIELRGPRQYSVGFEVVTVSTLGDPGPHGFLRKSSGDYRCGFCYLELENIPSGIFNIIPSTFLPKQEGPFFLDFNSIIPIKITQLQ
UniProt Q9Y2G2: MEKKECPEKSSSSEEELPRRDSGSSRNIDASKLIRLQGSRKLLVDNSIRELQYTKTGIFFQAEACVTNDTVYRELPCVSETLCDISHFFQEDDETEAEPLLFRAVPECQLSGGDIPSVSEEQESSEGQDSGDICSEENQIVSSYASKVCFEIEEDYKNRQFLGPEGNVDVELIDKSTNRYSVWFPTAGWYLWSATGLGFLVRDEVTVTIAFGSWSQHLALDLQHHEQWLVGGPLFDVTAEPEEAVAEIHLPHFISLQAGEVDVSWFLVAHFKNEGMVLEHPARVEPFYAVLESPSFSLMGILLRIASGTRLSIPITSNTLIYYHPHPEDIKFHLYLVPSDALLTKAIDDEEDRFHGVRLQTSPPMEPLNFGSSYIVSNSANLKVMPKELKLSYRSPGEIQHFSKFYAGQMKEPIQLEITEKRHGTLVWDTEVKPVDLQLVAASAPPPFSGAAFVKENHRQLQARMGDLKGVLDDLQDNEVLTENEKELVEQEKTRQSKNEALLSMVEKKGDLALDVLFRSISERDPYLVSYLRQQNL
UniProt Q6PH81: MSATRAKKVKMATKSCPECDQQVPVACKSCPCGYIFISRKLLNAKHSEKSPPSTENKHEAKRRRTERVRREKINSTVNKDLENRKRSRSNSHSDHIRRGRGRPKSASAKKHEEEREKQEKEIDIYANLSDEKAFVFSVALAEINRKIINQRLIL
UniProt A6NDU8: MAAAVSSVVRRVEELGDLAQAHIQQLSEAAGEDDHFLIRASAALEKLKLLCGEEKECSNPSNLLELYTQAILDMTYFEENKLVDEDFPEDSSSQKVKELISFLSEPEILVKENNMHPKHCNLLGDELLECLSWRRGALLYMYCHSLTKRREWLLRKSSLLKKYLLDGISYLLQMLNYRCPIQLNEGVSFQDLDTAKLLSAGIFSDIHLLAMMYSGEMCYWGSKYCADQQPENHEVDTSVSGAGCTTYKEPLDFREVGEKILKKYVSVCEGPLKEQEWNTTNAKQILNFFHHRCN

The other results are listed elsewhere or left out.

Compound in the test: c1cn2cc(-c3ccc4cn[nH]c4c3)nc(Nc3ccc(N4CCOCC4)cc3)c2n1 [entospletinib]
As to the kind of experiment: log2 fold change, soluble protein after heating vs DMSO (PISA); higher = thermal stabilisation; K562 cells, 10 uM, 30 min; active = over 0.2 and 3.5 SD of the protein, either way, in both replicates (recomputed). An outline of the steps: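 K562 cells at 2×10^6 cells/mL were treated with 10 μM compound for 30 min. Aliquots were heated for 3 min across 48°C-58°C, pooled, and extracted in PBS with 0.5% NP-40 at 4°C; soluble protein was the supernatant after 21,000xg for 90 min. Soluble protein was quantified by TMTpro 16plex LC-MS/MS with channel sums equalised, and reported as log2 fold change in thermal stability against DMSO controls, with values from duplicates.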

On to C2CD5 isoform 4 (UniProt Q86YS7), for which the log2 fold change was inactive: -0.064.

For CAND2 (UniProt O75155), the log2 fold change was inactive: -0.023.

With C1orf50 (UniProt Q9BV19), the log2 fold change is inactive: 0.035.

For the target C11orf74 (UniProt Q86VG3), the log2 fold change was inactive: 0.001.

Consider CAPZB (UniProt P47756), for which the log2 fold change is inactive: 0.019.

C3orf33 (UniProt Q6P1S2): the log2 fold change was inactive: 0.037.

As for C15orf40 (UniProt Q8WUR7), the log2 fold change was inactive: 0.044.

Consider C9orf40 (UniProt Q8IXQ3), for which the log2 fold change is inactive: 0.043.

For the target C1QBP (UniProt Q07021), the log2 fold change is inactive: 0.054.

With C1orf198 (UniProt Q9H425), the log2 fold change is inactive: 0.133.

As for C6orf136 isoform 4 (UniProt Q5SQH8), the log2 fold change is inactive: 0.151.

As to C5orf22 (UniProt Q49AR2), the log2 fold change was inactive: -0.022.

On to BSG (UniProt P35613), for which the log2 fold change is inactive: 0.002.

For CAPZA1 (UniProt P52907), the log2 fold change is inactive: 0.036.

Consider CAB39 (UniProt Q9Y376), for which the log2 fold change was inactive: -0.009.

For C1orf131 isoform 5 (UniProt Q8NDD1), the log2 fold change is inactive: 0.048.

For the target CARD6 (UniProt Q9BX69), the log2 fold change is inactive: -0.073.

Regarding C18orf32 (UniProt Q8TCD1), the log2 fold change is inactive: 0.017.

In the case of CAPN1 (UniProt P07384), the log2 fold change is inactive: -0.039.

With BTF3 (UniProt P20290), the log2 fold change was inactive: -0.012.

Regarding C7 (UniProt P10643), the log2 fold change is inactive: 0.29.

As for C1orf112 (UniProt Q9NSG2), the log2 fold change was inactive: -0.134.

As to C2orf49 (UniProt Q9BVC5), the log2 fold change was inactive: 0.025.

For the target CAPN7 (UniProt Q9Y6W3), the log2 fold change was inactive: -0.015.

With C18orf25 (UniProt Q96B23), the log2 fold change is inactive: 0.007.

Consider CARD8 isoform 5 (UniProt Q9Y2G2), for which the log2 fold change is inactive: 0.074.

As to C16orf87 (UniProt Q6PH81), the log2 fold change was inactive: -0.032.

With C4BPA (UniProt P04003), the log2 fold change was inactive: 0.049.

Regarding C2CD2L (UniProt O14523), the log2 fold change was inactive: 0.061.

On to C5orf51 (UniProt A6NDU8), for which the log2 fold change was inactive: 0.011.

Consider CA2 (UniProt P00918), for which the log2 fold change was inactive: 0.041.

In the case of CAPRIN1 (UniProt Q14444), the log2 fold change is inactive: 0.126.
